Assay results reported in US11535597B2, “Photoreactive ligands and uses thereof” (The Scripps Research Institute, priority 2017, dated 2022).
Values joined by “and” are separate entries in the source; they are usually repeats but may differ in a detail not shown here. Equal entries are not always repeated.

System: proteins in HEK293T cells
Assay: MS-based mapping of FFF probe-modified peptides (isoTOP, sites of labeling)
Type: binding, human
Protocol: Preparation and analysis was adapted from methods previously reported. In brief, for global mapping of fragment probe-modified peptides, separate 10 cm dishes of cells were treated with probes (200-250 μM) in 3.0 mL of DMEM (serum-free) and (if applicable) competitor ligands, proteomes harvested and subjected to click chemistry conditions with either light or heavy isotopically labeled biotin-TEV-azide (10 μL of 5 mM stocks in DMSO, final concentration=100 μM), TCEP, ligand and CuSO4 as detailed above. The samples were allowed to react for 1 h at which point the samples were centrifuged (16,000 g, 5 min, 4° C.). The resulting pellets were sonicated in ice-cold methanol (500 μL) and the resuspended light- and heavy-labeled samples were then combined and centrifuged (16,000 g, 5 min, 4° C.). The pellets were then solubilized in PBS containing 1.2% SDS (1 mL) with sonication and heating (5 min, 95° C.). Samples were transferred to falcon tubes containing DPBS (5 mL), to which a 100 μL of streptavidin-agarose beads slurry was added. After incubation, the beads (3 hr) were pelleted by centrifugation (1,400 g, 3 min) and were washed (2×10 mL PBS and 2×10 mL water). The beads were transferred to eppendorf tubes with 1 mL DPBS, centrifuged (1,400 g, 3 min), and resuspended in PBS containing 6 M urea. To this was added 10 mM DTT (25 μL of a 200 mM stock in water) and the beads were incubated at 65° C. for 15 mins. 20 mM iodoacetamide (25 μL of a 400 mM stock in water) was then added and allowed to react at 37° C. for 30 mins with shaking. The bead mixture was diluted with 900 μL PBS, pelleted by centrifugation (1,400 g, 3 min), and resuspended in 200 μL 2M urea (DPBS) containing trypsin and CaCl2 as described above. The beads were separated from the digest by centrifugation (1,000 g, 1 min), washed (2×1 mL PBS and 2×1 mL water) and then transferred to fresh eppendorfs with 1 mL water. The washed beads were washed once further in 150 μL TEV buffer (50 mM Tris, pH 8, 0.5 mM EDTA, 1 mM DTT) by centrifugation (1,400 g, 3 min) and the resuspended in 150 μL TEV buffer. 5 μL TEV protease (80 μM) was added and the reactions were rotated overnight at 29° C. The TEV digest was separated from the beads by centrifugation (1,400 g, 3 min) and the beads were washed once with water (100 μL). The samples were then acidified to a final concentration of 5% (v/v) formic acid and stored at −80° C. prior to analysis.
The resulting probe-modified peptides were collected for MS analysis, which was performed as described above with differences in the salt bumps applied in the chromatographic gradients which in this case were 0%, 30%, 60%, 90% and 100% NH4OAc (500 μM). The protein identification searches of the MS data were performed with the following changes applied to identify the peptides modified with the corresponding fragment probe and the cleaved TEV tag. All amino acids were considered as possible residues for modification. To facilitate the computational searches, sets of up to 3 amino acids were searched using ProLuCID and filtered with DTASelect as described above. […] The isoTOP ratios for probe labeled peptides were quantified using the in-house software CIMAGE.
For each protein in the site-of-labeling dataset, the UniProtKB accession number was used to map and collect relevant structures from the RCSB Protein Data Bank (PDB) fulfilling the following criteria: structures determined by X-ray crystallography, wild-type protein, Homo sapiens as the sole source organism. […] Fpocket 2.0 was used to detect potential binding pockets for the resultant structures with all parameters set at recommended default. Pockets with volume less than 500 Å^3 were removed from output prior to further analysis. Residues surrounding fpocket predicted binding pockets for each protein were collected to determine the number of residues overlapping with isoTOP peptides.

[1] = residues of HSD17B4 Peroxisomal multifunctional enzyme type 2 (P51659) labeled by probe
[2] = residues of HSD17B10 3-hydroxyacyl-CoA dehydrogenase type-2 (Q99714) labeled by probe

With C#CCCC1(CCC(=O)N2CCCCC2Cc2ccccc2)N=N1 (stereo not shown) [probe 13, 1-(2-Benzylpiperidin-1-yl)-3-(3-(but-3-yn-1-yl)-3H-diazirin-3-yl)propan-1-one] the “Labeled Peptide” value (residues of HSP90AA1 Heat shock protein HSP 90-alpha (P07900) labeled by probe) was 368-386 and 300-314 and 514-534, the “Labeled Peptide” value (residues of ILVBL Acetolactate synthase-like protein (AIL0T0) labeled by probe) was 557-577 and the “Labeled Peptide” value (residues of IMPDH2 Inosine-5-monophosphate dehydrogenase 2 (P12268) labeled by probe) was 110-124. For the same compound, the “Labeled Peptide” value (residues of KPNA2 Importin subunit alpha-2 (P52292) labeled by probe) was 301-315 and the “Labeled Peptide” value (residues of LARS Leucine--tRNA ligase, cytoplasmic (Q9P2J5) labeled by probe) was 1007-1017.

With C#CCCC1(CCC(=O)NC23CC4CC(CC(C4)C2)C3)N=N1 [probe 14, N-((3s,5s,7s)-Adamantan-1-yl)-3-(3-(but-3-yn-1-yl)-3H-diazirin-3-yl)propanamide] the “Labeled Peptide” value [1] was 385-403 and 622-633, the “Labeled Peptide” value (residues of IPO9 Importin-9 (Q96P70) labeled by probe) was 49-74 and the “Labeled Peptide” value (residues of IRS4 Insulin receptor substrate 4 (O14654) labeled by probe) was 256-267.

With C#CCCC1(CCC(=O)NCc2ccc3sccc3c2)N=N1 [probe 4, N-(Benzo[b]thiophen-5-ylmethyl)-3-(3-(but-3-yn-1-yl)-3H-diazirin-3-yl)propanamide] the “Labeled Peptide” value (residues of IDE Insulin-degrading enzyme (P14735) labeled by probe) was 312-324, the “Labeled Peptide” value (residues of IPO4 Importin-4 (Q8TEX9) labeled by probe) was 163-182 and the “Labeled Peptide” value (residues of LDHB L-lactate dehydrogenase B chain (P07195) labeled by probe) was 234-244.

With C#CCCC1(CCC(=O)NC2N=C(c3ccccc3)c3ccccc3NC2=O)N=N1 (stereo not shown) [probe 2, 3-(3-(But-3-yn-1-yl)-3H-diazirin-3-yl)-N-(2-oxo-5-phenyl-2,3-dihydro-1H-benzo[e][1,4]diazepin-3-yl)propanamide] the “Labeled Peptide” value (residues of HNRNPL Heterogeneous nuclear ribonucleoprotein L (P14866) labeled by probe) was 399-411 and the “Labeled Peptide” value [2] was 42672.

For C#CCCC1(CCC(=O)Nc2ccc(C3CCNCC3)cc2)N=N1 [probe 9, 3-(3-(But-3-yn-1-yl)-3H-diazirin-3-yl)-N-(4-(piperidin-4-yl)phenyl)propanamide], the “Labeled Peptide” value (residues of HSP90B1 Endoplasmin (P14625) labeled by probe) was 117-135, the “Labeled Peptide” value (residues of IFI30 Gamma-interferon-inducible lysosomal thiol reductase (P13284) labeled by probe) was 129-157 and the “Labeled Peptide” value (residues of LDHA L-lactate dehydrogenase A chain (P00338) labeled by probe) was 43-57.

For C#CCCC1(CCC(=O)Nc2ccc3oc(=O)ccc3c2)N=N1 [probe 3, 3-(3-(But-3-yn-1-yl)-3H-diazirin-3-yl)-N-(2-oxo-2H-chromen-6-yl)propanamide], the “Labeled Peptide” value [1] was 169-183, the “Labeled Peptide” value [2] was 42672 and the “Labeled Peptide” value (residues of HSPD1 60 kDA heat shock protein, mitochondrial (P10809) labeled by probe) was 345-352.
